Assay results taken from US4366162A, “Aryl ethers of N-alkyl-piperidines and acid addition salts thereof” (AB Ferrosan, priority 1977, dated 1982).
Converted amounts (≈) assume the structure as drawn.

Test system: acetylcholine induced contraction of guinea pig ileum
Experiment: Anticholinergic activity: acetylcholine induced contraction of guinea pig ileum
Settings: acetylcholine 0.02 μg/ml, 50% inhibition of the contraction

**Q.** Which “ED50, Anticholinergic activity” value does the source give for `O=C(CCCN1CCC(O)(c2ccc(Cl)cc2)CC1)c1ccc(F)cc1` [Haloperidol, haloperidol] here?
**A.** 32 µg/mL (≈ 85.1 µM)
